Measured values from publication PMC8274477.
No constants are given. Whether binding was seen depends on the method and setting. Some results given as binding are weak or reduced against the parent protein; the word gives no strength.

By UniProt entry, the sequences of proteins in these tests, tags left out.
UniProt Q8IZ83: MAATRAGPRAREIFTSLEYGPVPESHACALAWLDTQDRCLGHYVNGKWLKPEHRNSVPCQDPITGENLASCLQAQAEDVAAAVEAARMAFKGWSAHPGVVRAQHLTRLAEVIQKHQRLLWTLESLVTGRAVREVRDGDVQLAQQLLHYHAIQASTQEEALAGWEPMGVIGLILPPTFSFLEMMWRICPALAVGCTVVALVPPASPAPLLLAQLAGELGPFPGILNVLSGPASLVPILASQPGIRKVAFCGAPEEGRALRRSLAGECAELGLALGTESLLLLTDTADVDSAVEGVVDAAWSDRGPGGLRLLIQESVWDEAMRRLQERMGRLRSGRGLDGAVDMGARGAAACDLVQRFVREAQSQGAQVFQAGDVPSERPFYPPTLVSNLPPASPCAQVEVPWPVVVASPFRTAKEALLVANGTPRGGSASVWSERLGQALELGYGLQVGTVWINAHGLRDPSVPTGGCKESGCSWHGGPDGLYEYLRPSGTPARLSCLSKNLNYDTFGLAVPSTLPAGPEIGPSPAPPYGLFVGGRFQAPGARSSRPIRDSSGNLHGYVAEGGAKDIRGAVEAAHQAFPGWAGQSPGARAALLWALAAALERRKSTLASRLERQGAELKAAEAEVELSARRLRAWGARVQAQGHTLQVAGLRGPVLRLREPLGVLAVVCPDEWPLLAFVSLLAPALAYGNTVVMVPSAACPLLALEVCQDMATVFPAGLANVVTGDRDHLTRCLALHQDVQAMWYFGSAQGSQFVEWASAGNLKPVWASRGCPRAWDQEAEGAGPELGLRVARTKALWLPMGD
UniProt Q9C0E8: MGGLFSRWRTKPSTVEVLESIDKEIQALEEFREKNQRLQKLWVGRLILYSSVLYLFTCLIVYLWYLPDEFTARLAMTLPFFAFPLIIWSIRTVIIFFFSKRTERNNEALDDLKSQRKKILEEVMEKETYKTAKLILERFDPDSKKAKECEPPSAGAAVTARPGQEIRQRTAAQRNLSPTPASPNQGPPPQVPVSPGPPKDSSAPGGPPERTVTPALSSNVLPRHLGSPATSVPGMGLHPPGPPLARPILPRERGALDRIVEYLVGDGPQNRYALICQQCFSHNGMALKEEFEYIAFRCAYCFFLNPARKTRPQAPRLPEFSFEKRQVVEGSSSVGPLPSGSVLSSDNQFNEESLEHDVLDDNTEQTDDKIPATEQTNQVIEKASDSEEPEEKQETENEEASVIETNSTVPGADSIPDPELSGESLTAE
UniProt P11586: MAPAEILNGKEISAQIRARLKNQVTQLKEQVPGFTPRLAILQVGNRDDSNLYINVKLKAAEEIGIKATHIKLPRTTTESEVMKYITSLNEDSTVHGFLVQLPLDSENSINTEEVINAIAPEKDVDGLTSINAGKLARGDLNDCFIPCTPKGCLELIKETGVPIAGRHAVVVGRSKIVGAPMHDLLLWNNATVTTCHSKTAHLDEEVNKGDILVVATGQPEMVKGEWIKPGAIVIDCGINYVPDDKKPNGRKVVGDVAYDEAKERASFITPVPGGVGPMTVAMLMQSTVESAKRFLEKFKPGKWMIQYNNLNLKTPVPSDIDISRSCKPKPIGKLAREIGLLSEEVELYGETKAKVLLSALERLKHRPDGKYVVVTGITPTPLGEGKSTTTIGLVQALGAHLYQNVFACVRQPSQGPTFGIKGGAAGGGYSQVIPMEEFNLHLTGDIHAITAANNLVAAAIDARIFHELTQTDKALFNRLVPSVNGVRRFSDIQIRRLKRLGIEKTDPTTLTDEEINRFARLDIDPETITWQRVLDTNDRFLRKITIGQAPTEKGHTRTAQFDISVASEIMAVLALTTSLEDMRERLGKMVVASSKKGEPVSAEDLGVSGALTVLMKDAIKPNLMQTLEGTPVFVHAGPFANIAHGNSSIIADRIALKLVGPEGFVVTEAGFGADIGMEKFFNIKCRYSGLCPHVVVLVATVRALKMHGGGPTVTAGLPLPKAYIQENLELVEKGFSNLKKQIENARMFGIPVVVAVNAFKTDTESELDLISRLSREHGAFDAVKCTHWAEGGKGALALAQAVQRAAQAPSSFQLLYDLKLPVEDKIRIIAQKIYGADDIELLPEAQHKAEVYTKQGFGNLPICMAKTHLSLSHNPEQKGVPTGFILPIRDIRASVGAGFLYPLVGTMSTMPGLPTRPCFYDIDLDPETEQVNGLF

How the values were obtained:
Test in all cases: peptide or protein array; HuProt human proteome microarray; 5 ug/5 ml biotin-labelled LUBAC or OTULIN in solution, 1 h at room temperature; Cy5-streptavidin, scanned at 635 nm; BSA as negative control; hits: Z-score >= 3 and I_(Mean_Ratio) >= 1.4; both purified
[1] = biological target: T1, LAG3 (spot on the microarray) (human) (UniProt P18627)
T1 sequence: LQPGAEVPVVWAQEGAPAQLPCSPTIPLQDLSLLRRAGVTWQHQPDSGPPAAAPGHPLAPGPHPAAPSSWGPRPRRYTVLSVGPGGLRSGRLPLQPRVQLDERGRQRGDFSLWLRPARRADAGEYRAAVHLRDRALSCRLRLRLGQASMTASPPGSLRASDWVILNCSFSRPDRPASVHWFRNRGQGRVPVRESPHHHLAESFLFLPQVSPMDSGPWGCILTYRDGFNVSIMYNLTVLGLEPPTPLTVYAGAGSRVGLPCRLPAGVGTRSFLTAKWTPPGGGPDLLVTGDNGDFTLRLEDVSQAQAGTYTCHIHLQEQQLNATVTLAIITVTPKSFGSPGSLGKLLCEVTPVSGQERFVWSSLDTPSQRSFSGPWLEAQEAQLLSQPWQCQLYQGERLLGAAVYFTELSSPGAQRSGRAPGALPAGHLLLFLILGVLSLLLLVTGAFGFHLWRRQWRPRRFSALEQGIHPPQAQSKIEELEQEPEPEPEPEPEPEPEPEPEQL

ANXA3 (human) = biological target: T2, ANXA3 (human) (UniProt P12429)
T2 sequence: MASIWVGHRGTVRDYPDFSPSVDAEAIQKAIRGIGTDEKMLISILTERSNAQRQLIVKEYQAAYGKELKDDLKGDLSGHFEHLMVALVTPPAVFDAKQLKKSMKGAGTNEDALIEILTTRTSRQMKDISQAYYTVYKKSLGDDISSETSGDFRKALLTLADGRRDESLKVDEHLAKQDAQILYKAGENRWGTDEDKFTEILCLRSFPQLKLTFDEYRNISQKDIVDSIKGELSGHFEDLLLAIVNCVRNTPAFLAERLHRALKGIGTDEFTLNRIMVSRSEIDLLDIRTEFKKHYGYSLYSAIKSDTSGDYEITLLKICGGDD

CUTA (human) = biological target: T3, CUTA (human) (UniProt O60888)
T3 sequence: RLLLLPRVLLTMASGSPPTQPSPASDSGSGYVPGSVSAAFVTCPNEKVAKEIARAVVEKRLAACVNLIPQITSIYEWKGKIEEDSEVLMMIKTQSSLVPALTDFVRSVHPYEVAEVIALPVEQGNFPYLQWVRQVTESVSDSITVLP

ALDH16A1 (human) = ALDH16A1 (human) (UniProt Q8IZ83)
LNP (human) = LNP (human) (UniProt Q9C0E8)
MTHFD1 (human) = MTHFD1 (human) (UniProt P11586)
SLC25A16 (human) = biological target: T4, SLC25A16 (human) (UniProt P16260)
T4 sequence: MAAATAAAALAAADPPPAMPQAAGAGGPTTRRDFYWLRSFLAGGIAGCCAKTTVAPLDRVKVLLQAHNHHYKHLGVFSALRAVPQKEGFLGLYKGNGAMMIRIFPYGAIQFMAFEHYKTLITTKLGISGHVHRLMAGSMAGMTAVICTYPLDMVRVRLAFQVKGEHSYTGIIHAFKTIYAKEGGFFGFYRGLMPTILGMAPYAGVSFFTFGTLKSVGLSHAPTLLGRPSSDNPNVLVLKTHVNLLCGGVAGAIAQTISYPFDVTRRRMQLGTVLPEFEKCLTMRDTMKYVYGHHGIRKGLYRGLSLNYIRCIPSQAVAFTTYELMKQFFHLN

Measured: binding

linear ubiquitin chain assembly complex (LUBAC), purified as HIS-tagged HOIP with the subunit HOIL-1, biotin-labelled (from UniProt Q96EP0 1-1072; Q9BYM8 1-510)
binds: all assays above
